Patent US5925529A, “Method for discovery of peptide agonists” (The Regents of the University of California, priority 1995, dated 1999)
“Also recorded” adds a separate entry of the source. Not every detail of the peptide structures is certain; ends, links or a residue may be inferred. Ends that are not written are not given here. Peptide text beside a SMILES is read from it. * marks the point of attachment. For = O=C*

Target: T1, Human fMLF receptor (Homo sapiens, UniProt P21462)
T1 construct: expressed in transfected cells; host or cells: Xenopus laevis oocytes microinjected with cRNA
T1 sequence (P21462 1-350): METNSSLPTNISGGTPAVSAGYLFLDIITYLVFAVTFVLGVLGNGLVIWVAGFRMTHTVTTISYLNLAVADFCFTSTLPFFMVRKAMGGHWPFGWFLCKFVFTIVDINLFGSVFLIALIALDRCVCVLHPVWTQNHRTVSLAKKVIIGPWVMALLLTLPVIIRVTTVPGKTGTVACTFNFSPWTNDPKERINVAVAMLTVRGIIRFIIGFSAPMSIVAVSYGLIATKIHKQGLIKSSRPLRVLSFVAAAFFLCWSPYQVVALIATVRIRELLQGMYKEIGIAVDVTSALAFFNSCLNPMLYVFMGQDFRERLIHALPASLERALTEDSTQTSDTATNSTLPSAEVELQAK
Assay: Agonist-induced 45Ca release from Xenopus oocytes expressing the formyl peptide receptor
Assay type: cell-based
Conditions: Xenopus oocytes injected with human fMLF receptor cRNA; compared with fMLF (FIG. 2)
Method: Xenopus oocytes were harvested from female Xenopus laevis and processed using published techniques. Coleman, A., In Transcription and Translation: A Practical Approach, Oxford: IRL Press, pp. 271-302 (1984); Williams et al., PNAS 85: 4939-4943 (1988). To remove follicular cells, oocytes were incubated for 4 hr at room temperature with 1 mg/ml Sigma type II collagenase in modified Barth's solution (MBSH) without Ca^2+, then washed and incubated overnight at 18° C. in MBSH II (MBSH containing 1 mg/ml bovine serum albumin, 1 ml/ml Ficoll, 100 U/ml penicillin, 100 μg/ml streptomycin, and 50 μg/ml gentamicin). […]
Agonist-induced increases in ^45 Ca^2+ release were assessed by published techniques. […] The harvested medium was analyzed by scintillation counting to determine ^45 Ca^2+ release by the oocytes during each 10 min incubation. […] At this point, two additional 10 min collections were obtained, then medium including agonist was added and agonist-induced ^45 Ca^2+ release determined.
Formyl peptide receptor response to its classical agonist fMLF (SEQ ID NO:12) and to the new agonist derived from tethered ligand library. […] Xenopus oocytes were microinjected with 5 ng cRNA transcribed from this construct, cultured for 24 hours, and ^45 Ca release in response to the indicated concentration of peptides was measured as described above.

Compound	agonist activity / signaling (45Ca release) at the formyl peptide receptor
CSCC[C@H](NC=O)C(=O)N[C@@H](CCSC)C(=O)N[C@@H](Cc1c[nH]c2ccccc12)C(=O)N[C@@H](CC(C)C)C(=O)N[C@@H](CC(C)C)C(=O)O [fMMWLL] (For-MMWLL-OH)	more potent than fMLF; also recorded: more potent than f-MLF
MMWLL [MMWLL]	functions as an agonist at the fMLF receptor; also recorded: almost as active as the classical formyl peptide receptor agonist, f-MLF
